Data as given in PubChem BioAssay AID1224828 (NIAID, 2016).

- Purpose: 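Knock-downs that increase or decrease LPS-induced p65 nuclear translocation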 (primary screen)
- System: mouse RAW264.7 G9 macrophage reporter cells (GFP-p65, Tnf promoter-mCherry)
- Reagents: siRNA pool against mouse genes, 100 nM
- Duration: 2 days siRNA transfection, then 40 min LPS before fixation
- Treatment: LPS (Salmonella minnesota R595) at 10 ng/ml
- Read-out: 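Imaged p65 nuclear translocation ratio, normalised to the plate median, converted to robust z-scores and averaged across two replicates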
- Scale: p65 translocation robust z-score: higher = more nuclear NF-kappaB p65 after LPS than the plate median; nuclear/cytoplasmic p65 ratio: higher = more nuclear NF-kappaB p65
- Rule for the call: 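Called active when z exceeds 3.3 or falls under -1.56 (median of Tlr4 controls), giving activity score of at least 50; no calls for control wells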
- Calls: active = hit (p65 shift raised or lowered); inactive = no clear change
Shown is an unselected part of about 17,000 deposited reagents. Over the whole deposit, 762 (4.5%) got an active call. 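Active calls include both raised and lowered p65 entry, mostly lowered; wells with fewer than 50 cells lack a z-score.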 The raw values are shown without normalisation.

Gene,p65 translocation robust z-score,"nuclear/cytoplasmic p65 ratio, rep 1","nuclear/cytoplasmic p65 ratio, rep 2",low cell count flag,Outcome
Aadat,1.52,1.77,1.63,enough cells to score,inactive
Vta1,,1.3,1.38,fewer than 50 cells per well; well left out of scoring,inactive
Zbtb35,,1.56,1.23,fewer than 50 cells per well; well left out of scoring,inactive
Rbl2,,1.6,1.53,fewer than 50 cells per well; well left out of scoring,inactive
Cdh8,-0.52,1.37,1.33,enough cells to score,inactive
Praf2,,1.48,1.31,fewer than 50 cells per well; well left out of scoring,inactive
Urm1,,0.921,1.16,fewer than 50 cells per well; well left out of scoring,inactive
Gabrd,1.5,1.63,1.57,enough cells to score,inactive
Icam5,0.91,1.57,1.48,enough cells to score,inactive
Or2o1,-1.33,1.18,1.32,enough cells to score,inactive
Loxl4,2.31,2.12,1.85,enough cells to score,inactive
Junb,1.54,1.5,1.57,enough cells to score,inactive
Gpr160,-1.31,1.28,1.43,enough cells to score,inactive
Pspn,-0.46,1.45,1.33,enough cells to score,inactive
Slc32a1,0.83,1.45,1.36,enough cells to score,inactive
B130006D01Rik,0.72,1.67,1.65,enough cells to score,inactive
B4galt2,1.63,1.88,2.06,enough cells to score,inactive
Gpr65,,1.15,1.39,fewer than 50 cells per well; well left out of scoring,inactive
Asrgl1,0.21,1.52,1.65,enough cells to score,inactive
Pla2g3,0.5,1.78,1.6,enough cells to score,inactive
Gm5134,1.01,1.91,1.66,enough cells to score,inactive
Gpr63,-0.76,1.43,1.48,enough cells to score,inactive
Oasl1,0.35,1.5,1.45,enough cells to score,inactive
Drg1,1.41,1.61,1.53,enough cells to score,inactive
Cnksr3,0.89,1.89,1.64,enough cells to score,inactive
Tmt1a2,,1.22,1.22,fewer than 50 cells per well; well left out of scoring,inactive
Psg28,0.88,1.5,1.31,enough cells to score,inactive
Tagap,,0,1.82,fewer than 50 cells per well; well left out of scoring,inactive

The list goes on, starting with the last 7 of the part before.
Gene,p65 translocation robust z-score,"nuclear/cytoplasmic p65 ratio, rep 1","nuclear/cytoplasmic p65 ratio, rep 2",low cell count flag,Outcome
Gpr63,-0.76,1.43,1.48,enough cells to score,inactive
Oasl1,0.35,1.5,1.45,enough cells to score,inactive
Drg1,1.41,1.61,1.53,enough cells to score,inactive
Cnksr3,0.89,1.89,1.64,enough cells to score,inactive
Tmt1a2,,1.22,1.22,fewer than 50 cells per well; well left out of scoring,inactive
Psg28,0.88,1.5,1.31,enough cells to score,inactive
Tagap,,0,1.82,fewer than 50 cells per well; well left out of scoring,inactive
Snx15,,0.984,0.984,fewer than 50 cells per well; well left out of scoring,inactive
1810065E05Rik,,1.28,1.58,fewer than 50 cells per well; well left out of scoring,inactive
Impdh2,,1.51,1.45,fewer than 50 cells per well; well left out of scoring,inactive
Cyct,2.6,1.83,2.35,enough cells to score,inactive
Lins1,-0.55,1.35,1.18,enough cells to score,inactive
Or2ag2b,,1.35,1.17,fewer than 50 cells per well; well left out of scoring,inactive
Or13a17,-0.05,1.47,1.24,enough cells to score,inactive
Rax,0.39,1.58,1.56,enough cells to score,inactive
Cyp4a12b,-0.03,1.6,1.75,enough cells to score,inactive
Aqp8,-0.69,1.53,1.5,enough cells to score,inactive
Dmtf1l,,1.35,1.16,fewer than 50 cells per well; well left out of scoring,inactive
Obi1,0.47,1.31,1.52,enough cells to score,inactive
Cimap1a,-0.34,1.6,1.53,enough cells to score,inactive
Tas2r113,,1.33,1.23,fewer than 50 cells per well; well left out of scoring,inactive
Rpl9,,1.63,1.23,fewer than 50 cells per well; well left out of scoring,inactive
Rps27l,0.65,1.47,1.33,enough cells to score,inactive
Gli2,0.14,1.56,1.29,enough cells to score,inactive
Sult1a1,-0.71,1.47,1.44,enough cells to score,inactive
Anp32e,-0.11,1.5,1.76,enough cells to score,inactive
Alg9,0.97,1.52,1.55,enough cells to score,inactive
Surf2,,1.16,0.988,fewer than 50 cells per well; well left out of scoring,inactive
Stn1,0.81,1.76,1.46,enough cells to score,inactive
Mnx1,1.1,1.5,1.59,enough cells to score,inactive
BC016548,0.22,1.57,1.92,enough cells to score,inactive
Ptbp2,,1.33,1.24,fewer than 50 cells per well; well left out of scoring,inactive
Ric1,2.25,1.75,1.82,enough cells to score,inactive
Hmg20b,-2.5,1.34,1.2,enough cells to score,active
Arsk,-0.1,1.31,1.21,enough cells to score,inactive
Acbd3,-1.08,1.36,1.61,enough cells to score,inactive
Pitx3,-1.04,1.33,1.29,enough cells to score,inactive
Or52r1,,0,1.28,fewer than 50 cells per well; well left out of scoring,inactive
